No constants are given. Whether binding was seen depends on the method and setting. In cells and extracts the contact can be indirect. These calls come from enrichment with a bait or labelling near it, and not all partners need be listed.

Sequences of proteins named here, by UniProt entry; tags and fusion partners are left off.
UniProt Q8CJ19: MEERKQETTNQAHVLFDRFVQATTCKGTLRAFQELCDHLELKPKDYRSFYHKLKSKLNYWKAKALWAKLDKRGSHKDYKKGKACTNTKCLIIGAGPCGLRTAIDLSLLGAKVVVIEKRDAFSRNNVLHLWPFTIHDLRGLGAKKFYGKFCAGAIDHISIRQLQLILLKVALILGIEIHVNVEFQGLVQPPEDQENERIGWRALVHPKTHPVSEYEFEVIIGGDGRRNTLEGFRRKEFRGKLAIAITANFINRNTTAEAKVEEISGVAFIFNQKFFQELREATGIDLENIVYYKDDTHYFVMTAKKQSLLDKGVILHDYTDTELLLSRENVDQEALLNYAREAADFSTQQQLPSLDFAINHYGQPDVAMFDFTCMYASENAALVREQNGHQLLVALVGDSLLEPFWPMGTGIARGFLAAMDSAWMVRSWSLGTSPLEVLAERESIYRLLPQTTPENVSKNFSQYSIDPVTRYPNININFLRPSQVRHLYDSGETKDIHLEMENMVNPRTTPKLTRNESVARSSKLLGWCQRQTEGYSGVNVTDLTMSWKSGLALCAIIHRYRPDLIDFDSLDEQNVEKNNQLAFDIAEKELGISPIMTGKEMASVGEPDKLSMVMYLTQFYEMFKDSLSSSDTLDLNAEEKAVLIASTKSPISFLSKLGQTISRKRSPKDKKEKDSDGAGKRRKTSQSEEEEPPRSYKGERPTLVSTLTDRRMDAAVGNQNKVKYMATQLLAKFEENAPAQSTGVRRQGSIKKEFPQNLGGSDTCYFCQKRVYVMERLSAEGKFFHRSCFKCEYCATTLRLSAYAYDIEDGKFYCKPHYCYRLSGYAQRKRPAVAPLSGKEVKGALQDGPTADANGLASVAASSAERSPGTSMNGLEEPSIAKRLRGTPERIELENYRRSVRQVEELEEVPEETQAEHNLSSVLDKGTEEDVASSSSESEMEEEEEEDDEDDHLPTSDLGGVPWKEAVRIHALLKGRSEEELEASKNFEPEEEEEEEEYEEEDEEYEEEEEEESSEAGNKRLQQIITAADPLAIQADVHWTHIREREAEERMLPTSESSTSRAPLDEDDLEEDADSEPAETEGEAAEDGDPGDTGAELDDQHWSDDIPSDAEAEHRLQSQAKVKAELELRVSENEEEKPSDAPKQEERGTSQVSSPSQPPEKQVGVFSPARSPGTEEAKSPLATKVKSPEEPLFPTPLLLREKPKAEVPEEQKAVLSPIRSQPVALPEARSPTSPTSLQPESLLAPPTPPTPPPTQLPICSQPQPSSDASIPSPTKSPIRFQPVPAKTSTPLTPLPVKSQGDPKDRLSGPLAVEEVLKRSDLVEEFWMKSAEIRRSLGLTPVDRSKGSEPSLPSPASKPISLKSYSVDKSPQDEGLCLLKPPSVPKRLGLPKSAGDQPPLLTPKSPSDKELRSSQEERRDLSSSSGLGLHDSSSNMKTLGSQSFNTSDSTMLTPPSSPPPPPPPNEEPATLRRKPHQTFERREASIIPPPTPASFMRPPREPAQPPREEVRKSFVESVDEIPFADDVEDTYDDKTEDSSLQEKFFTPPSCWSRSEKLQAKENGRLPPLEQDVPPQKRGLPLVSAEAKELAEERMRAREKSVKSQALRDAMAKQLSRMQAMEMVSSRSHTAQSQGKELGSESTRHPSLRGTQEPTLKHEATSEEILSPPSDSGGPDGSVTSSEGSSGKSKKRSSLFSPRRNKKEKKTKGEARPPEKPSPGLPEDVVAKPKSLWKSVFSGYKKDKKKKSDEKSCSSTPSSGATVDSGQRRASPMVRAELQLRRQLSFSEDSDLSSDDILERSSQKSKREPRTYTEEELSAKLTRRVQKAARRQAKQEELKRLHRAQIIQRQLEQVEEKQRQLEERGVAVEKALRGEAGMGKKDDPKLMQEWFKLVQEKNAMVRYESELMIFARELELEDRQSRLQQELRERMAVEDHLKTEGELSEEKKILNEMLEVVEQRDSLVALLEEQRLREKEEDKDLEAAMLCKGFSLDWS

The test deals with T1, CHK1 (mouse zygotes) (mouse (endogenous in mouse zygotes)) (UniProt O35280).
T1 sequence: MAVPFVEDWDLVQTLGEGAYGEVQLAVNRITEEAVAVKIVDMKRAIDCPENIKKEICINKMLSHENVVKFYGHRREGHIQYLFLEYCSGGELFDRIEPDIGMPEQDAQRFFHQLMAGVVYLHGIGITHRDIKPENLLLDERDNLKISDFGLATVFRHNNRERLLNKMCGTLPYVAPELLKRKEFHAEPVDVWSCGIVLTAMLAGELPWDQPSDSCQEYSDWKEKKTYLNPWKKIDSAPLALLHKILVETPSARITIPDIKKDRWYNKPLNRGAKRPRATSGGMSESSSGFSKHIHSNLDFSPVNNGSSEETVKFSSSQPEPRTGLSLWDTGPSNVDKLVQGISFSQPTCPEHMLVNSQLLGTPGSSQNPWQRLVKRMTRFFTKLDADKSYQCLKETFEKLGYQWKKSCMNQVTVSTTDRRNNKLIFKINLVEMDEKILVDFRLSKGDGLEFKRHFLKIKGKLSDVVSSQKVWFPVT
The experiment in a line: affinity purification with mass spectrometry; lysates of 6000 mouse zygotes pooled; IP with 1 ug CHK1 antibody overnight at 4 C, Protein A/G magnetic beads; proteins of an IgG control subtracted; gel band analysed by mass spectrometry.

“MICAL3 (mouse zygotes) (from UniProt Q8CJ19 1-1993)”: the binding entry is “binds”.

Values taken from PMC11549291.
